Some results were stated once for a whole list of compounds, not compound by compound. At least one compound was matched to its structure with a doubt left.
Tested on: SKNF2 cell lines
Assay: Comparative examples: BG, BG derivatives, TAT derivative and co-administration versus Composition 300 in mice implanted with SKNF2 cell lines
Type: in vivo
Conditions: 3 mg/kg subcutaneously daily for 15 days (FIGS. 12a, 12b)
Description: FIGS. 12a and 12b shown the effect of the control and treatment with BG, BG derivatives, thyrointegrin antagonists such as TAT derivatives, and combinations (co-administration) thereof, versus Composition 300 (BG-P-TAT) on tumor cell necrosis of mice implanted with SKNF2 cell lines.
Further, even a combination treatment of two triazole tetrac derivatives in combination delivered subcutaneously daily for three (3) weeks at 3 mg/kg only achieves a reduction of 40-50% for tumor growth and tumor viability. Similar results are obtained with treatments using benzyl guanidine and benzyl guanidine derivatives.
For example, the graph of FIG. 12b includes the effect of a triazole tetrac derivative (referred to as TAT) on tumor weight when compared with a control group (phosphate-buffered saline “PBS”). The specific derivative tested was beta cyclodextrin triazole tetrac.
Again, beta cyclodextrin triazole tetrac was the tetrac derivative used.
Composition 300 achieves approximately 80% reduction in tumor. Further, the viability of residual tumor was reduced by 80%.

SMILES: N=C(N)NCc1ccccc1 [BG, benzyl guanidine]
- tumor weight shrinkage / reduction versus control (PBS): 40-50%

Reference: patent US11351137B2, “Composition and method for dual targeting in treatment of neuroendocrine tumors” (NANOPHARMACEUTICALS LLC, priority 2018, dated 2022)
